Results are given in words; binding and its absence hold for the method and conditions named. Binding seen in cells or lysates may run through a third protein. Some entries that bind do so weakly or less than the wild type. Values belong to the substance of their own block, whether it stands above or below them.
Experiments:
[1] = molecular target: adenomatous polyposis coli (APC) (mouse (endogenous in RAW 264.7)) (UniProt Q61315); test: co-IP; endogenous proteins of RAW 264.7 lysate; IP with rabbit antibodies against APC or against PKA cat (control rabbit IgG), 2 h at 4 °C, protein G magnetic beads; binding buffer 20 mM HEPES pH 7.9, 30 mM MgCl2, 10% glycerol, 0.2% Nonidet P-40; immunoblot
[2] = molecular target: adenomatous polyposis coli (APC), human (human (endogenous in primary macrophages)) (UniProt P25054); test: co-IP; protein extracts of primary human macrophages; IP with IgG against APC (control IgG), immunoblot for PKA RII
[3] = molecular target: adenomatous polyposis coli (APC) (mouse (endogenous in RAW 264.7)) (UniProt Q61315); test: co-IP; lysate of RAW 264.7 cells transduced with retrovirus for RII HA-tagged or ΔD/D RII HA-tagged; IP with rabbit IgG against APC (control rabbit IgG), immunoblot for the HA-tag

Chains of the proteins cited; added tags and fusions are not shown.
UniProt Q61315: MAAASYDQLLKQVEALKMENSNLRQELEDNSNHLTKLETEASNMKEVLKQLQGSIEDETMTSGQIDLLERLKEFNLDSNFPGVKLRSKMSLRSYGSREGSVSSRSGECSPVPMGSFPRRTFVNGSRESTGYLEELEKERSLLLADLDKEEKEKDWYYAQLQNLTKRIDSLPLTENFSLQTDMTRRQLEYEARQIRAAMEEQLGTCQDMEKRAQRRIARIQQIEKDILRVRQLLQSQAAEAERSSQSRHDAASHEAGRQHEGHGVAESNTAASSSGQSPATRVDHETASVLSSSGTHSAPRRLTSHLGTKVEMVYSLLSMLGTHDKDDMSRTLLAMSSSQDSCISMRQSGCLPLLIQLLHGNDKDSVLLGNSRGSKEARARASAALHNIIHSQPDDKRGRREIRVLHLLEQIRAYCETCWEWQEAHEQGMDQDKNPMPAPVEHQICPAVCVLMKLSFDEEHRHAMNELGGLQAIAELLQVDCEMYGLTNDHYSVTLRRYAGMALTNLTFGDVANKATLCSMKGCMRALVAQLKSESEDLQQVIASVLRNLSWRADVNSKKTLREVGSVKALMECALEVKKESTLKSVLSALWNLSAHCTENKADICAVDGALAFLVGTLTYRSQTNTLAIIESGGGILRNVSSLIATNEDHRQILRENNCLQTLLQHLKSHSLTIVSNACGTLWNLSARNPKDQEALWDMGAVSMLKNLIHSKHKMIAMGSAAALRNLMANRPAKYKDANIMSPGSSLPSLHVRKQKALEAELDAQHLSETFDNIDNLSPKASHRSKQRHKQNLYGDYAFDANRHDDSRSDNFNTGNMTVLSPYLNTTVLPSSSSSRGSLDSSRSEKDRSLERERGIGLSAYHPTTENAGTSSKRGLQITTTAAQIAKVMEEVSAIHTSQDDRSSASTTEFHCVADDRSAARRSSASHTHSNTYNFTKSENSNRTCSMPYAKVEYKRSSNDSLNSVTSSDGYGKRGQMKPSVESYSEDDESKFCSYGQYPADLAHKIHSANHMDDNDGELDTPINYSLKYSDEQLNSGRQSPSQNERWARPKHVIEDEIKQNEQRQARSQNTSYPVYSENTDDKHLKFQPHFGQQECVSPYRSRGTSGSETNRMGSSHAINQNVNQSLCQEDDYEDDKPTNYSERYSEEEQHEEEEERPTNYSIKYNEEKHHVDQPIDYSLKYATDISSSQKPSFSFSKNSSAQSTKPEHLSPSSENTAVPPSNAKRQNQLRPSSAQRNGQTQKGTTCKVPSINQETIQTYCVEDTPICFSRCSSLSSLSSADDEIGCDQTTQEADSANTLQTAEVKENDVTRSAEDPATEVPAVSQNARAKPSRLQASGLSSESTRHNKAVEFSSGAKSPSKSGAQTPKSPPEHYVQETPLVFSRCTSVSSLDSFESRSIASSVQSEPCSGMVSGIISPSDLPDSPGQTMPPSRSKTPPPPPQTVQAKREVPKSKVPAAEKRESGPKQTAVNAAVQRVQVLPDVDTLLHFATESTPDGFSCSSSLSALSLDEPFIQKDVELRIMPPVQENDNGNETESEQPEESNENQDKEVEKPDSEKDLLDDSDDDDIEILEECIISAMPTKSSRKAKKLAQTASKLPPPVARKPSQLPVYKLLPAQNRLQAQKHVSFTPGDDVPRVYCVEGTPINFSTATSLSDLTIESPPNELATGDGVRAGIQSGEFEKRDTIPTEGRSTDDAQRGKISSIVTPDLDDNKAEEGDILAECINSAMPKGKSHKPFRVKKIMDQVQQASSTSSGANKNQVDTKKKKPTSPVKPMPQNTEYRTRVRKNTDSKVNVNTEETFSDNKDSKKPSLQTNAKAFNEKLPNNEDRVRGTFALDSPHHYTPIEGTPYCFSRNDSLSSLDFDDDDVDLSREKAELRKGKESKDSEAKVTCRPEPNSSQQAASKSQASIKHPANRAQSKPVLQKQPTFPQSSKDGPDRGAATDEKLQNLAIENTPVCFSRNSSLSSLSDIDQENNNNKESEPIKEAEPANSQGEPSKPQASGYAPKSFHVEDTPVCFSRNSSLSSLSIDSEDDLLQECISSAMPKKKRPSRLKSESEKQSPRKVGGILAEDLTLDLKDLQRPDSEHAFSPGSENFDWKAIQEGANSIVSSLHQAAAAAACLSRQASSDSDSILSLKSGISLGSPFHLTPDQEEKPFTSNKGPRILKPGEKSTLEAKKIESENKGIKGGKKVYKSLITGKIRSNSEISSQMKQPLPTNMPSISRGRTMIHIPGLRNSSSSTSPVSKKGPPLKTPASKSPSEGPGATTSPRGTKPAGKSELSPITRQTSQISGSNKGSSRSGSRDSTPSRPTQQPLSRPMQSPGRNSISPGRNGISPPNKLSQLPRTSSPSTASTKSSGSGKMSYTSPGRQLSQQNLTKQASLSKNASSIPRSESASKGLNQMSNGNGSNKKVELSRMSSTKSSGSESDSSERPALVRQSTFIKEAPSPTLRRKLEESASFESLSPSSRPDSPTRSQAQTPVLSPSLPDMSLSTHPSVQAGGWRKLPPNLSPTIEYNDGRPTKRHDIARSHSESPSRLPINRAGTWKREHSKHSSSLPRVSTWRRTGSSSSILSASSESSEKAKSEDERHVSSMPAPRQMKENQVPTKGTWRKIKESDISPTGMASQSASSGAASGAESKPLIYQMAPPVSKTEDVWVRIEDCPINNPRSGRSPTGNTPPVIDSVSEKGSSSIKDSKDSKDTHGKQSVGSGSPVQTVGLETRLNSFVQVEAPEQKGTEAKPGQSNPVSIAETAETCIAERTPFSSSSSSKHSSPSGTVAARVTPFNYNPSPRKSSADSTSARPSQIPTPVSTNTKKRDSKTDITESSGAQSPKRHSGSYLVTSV
UniProt P25054: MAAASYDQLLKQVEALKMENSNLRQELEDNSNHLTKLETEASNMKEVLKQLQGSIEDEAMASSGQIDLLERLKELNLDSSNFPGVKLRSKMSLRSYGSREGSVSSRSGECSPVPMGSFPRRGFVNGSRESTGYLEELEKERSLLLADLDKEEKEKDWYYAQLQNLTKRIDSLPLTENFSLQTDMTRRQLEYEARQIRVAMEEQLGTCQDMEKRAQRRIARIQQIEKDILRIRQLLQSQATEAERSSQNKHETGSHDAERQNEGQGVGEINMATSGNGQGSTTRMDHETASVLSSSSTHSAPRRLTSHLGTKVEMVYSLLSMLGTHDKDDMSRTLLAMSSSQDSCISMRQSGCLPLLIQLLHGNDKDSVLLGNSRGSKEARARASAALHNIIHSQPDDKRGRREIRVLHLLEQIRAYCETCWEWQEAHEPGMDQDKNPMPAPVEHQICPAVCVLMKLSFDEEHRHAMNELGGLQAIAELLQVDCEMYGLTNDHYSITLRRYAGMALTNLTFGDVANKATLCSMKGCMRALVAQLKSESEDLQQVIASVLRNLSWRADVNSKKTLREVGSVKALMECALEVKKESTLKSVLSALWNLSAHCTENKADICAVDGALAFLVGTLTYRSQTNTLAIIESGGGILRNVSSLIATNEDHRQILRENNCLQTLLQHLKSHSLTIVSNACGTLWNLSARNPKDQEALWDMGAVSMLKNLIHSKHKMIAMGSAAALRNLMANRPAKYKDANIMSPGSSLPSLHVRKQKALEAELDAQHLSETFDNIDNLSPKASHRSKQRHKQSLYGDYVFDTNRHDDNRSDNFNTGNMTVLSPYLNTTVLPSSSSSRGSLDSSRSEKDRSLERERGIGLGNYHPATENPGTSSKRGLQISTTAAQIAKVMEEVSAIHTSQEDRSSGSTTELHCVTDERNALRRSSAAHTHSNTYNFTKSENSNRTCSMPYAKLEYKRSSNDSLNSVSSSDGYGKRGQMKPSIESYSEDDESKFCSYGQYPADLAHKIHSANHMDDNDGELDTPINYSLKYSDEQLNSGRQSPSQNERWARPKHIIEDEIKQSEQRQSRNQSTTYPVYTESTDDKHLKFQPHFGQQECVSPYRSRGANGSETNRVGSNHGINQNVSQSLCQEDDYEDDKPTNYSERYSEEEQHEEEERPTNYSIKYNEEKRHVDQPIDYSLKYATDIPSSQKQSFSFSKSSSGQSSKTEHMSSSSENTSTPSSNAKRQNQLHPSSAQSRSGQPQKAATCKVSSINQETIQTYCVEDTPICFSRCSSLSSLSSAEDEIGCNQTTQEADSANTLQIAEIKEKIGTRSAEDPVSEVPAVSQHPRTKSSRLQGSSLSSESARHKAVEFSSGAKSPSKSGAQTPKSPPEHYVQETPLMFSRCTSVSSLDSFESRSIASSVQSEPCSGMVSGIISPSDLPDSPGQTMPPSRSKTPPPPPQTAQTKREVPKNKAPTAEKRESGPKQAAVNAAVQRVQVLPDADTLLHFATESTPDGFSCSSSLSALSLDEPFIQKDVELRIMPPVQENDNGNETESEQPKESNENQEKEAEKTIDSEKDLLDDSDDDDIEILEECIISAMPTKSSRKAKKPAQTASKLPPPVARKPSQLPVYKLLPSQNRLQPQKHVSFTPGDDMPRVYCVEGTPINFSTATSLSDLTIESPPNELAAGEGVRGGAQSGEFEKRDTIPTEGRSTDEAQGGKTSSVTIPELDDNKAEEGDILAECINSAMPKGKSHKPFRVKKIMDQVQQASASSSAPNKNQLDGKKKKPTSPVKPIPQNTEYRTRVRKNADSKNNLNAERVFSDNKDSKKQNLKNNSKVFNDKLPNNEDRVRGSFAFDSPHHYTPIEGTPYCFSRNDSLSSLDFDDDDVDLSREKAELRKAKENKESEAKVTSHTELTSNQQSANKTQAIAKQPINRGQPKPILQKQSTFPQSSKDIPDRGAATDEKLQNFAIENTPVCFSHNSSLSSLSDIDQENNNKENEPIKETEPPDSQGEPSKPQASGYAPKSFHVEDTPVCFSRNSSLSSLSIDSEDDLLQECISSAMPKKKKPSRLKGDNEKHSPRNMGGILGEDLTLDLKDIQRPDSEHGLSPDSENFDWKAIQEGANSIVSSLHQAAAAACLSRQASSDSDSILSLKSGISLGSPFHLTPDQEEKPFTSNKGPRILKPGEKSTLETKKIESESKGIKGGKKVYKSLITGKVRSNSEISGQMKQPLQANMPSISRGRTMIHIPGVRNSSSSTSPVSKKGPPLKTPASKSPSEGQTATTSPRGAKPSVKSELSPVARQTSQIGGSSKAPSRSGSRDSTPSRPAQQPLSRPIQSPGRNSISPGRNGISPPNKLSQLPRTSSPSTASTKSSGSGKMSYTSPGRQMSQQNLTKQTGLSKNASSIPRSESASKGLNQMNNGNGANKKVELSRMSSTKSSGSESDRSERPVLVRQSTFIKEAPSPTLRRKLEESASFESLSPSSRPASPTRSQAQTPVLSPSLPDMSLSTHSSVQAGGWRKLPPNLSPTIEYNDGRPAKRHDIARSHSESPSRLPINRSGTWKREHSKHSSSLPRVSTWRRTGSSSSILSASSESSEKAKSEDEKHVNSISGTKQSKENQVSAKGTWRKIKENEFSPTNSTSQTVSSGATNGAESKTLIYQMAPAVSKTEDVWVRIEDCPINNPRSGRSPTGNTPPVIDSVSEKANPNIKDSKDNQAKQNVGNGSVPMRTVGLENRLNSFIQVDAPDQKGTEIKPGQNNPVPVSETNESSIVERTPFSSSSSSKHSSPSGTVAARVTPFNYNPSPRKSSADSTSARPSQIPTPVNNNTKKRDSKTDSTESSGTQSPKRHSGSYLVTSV
UniProt P12367: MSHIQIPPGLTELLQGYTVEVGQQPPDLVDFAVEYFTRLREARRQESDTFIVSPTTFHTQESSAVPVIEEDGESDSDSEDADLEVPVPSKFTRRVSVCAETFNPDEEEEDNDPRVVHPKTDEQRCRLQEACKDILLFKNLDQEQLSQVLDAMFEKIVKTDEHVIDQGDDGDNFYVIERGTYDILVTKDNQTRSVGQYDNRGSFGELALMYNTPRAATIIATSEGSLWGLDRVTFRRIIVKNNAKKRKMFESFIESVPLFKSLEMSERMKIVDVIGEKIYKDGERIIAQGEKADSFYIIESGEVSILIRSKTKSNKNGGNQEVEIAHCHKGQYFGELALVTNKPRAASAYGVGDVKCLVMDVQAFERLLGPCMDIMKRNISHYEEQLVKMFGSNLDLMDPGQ
UniProt P13861: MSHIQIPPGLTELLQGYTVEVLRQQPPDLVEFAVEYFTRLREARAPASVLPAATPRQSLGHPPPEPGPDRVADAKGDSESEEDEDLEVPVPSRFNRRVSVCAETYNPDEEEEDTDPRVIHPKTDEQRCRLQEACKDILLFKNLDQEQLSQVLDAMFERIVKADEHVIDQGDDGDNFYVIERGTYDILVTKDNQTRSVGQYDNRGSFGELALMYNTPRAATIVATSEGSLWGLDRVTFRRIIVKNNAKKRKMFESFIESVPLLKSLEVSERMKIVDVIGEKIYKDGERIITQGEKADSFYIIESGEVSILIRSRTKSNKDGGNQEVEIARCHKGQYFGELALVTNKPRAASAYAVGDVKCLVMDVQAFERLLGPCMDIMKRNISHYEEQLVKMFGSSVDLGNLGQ

binding [1]: binds
Substance: PKA regulatory subunit RII (from UniProt P12367 1-401)

binding [2]: binds
Substance: PKA regulatory subunit RII, human (from UniProt P13861 1-404)

binding [3]: binds
Substance: RII HA-tagged (from UniProt P12367 1-401)

Reference: publication PMC6240029
